± gives the standard deviation. Only a part is listed here, and it is no random draw. The uncertainty is large for many entries.
What was measured:
[1] = system: MIWI (PIWIL1) piRISC loaded with piRNA #1 (30 nt); test: pre-steady-state target cleavage rate (min^-1); higher = faster piRNA-guided slicing of the target; conditions: guide: piRNA #1 5'p-UGAGGUAGUAGGUUGUAUAGUAUCCAGAGG; auxiliary factor: 500 nM mouse GTSF1;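 note: 1 nM active piRISC with 0.1 nM target library at 33 °C single turnover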
Method in brief: (§1)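 Cleave-'n-Seq measured uncleaved targets by sequencing after a transcribed, DNA-blocked target RNA library […] was mixed with 1 nM active affinity-purified piRISC holding one synthetic guide, with or without 500 nM GTSF1 partner protein, at 33 °C in HEPES–potassium acetate buffer for 0–8 or 0–960 min. Counts were normalised to depth and to weakly complementary targets, three trials were pooled, and k3 was capped at 0.0001 min^-1. A burst-and-steady-state fit gave the pre-steady-state cleavage rate.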

[2] = system: EfPiwi piRISC loaded with piRNA #1 (26 nt); test: pre-steady-state target cleavage rate (min^-1); guide: piRNA #1 5'p-UGAGGUAGUAGGUUGUAUAGUAUCCA; MIWI and MILI are mouse PIWI proteins and EfPiwi is from a freshwater sponge; tags in brackets are library labels; higher = faster piRNA-guided slicing of the target; conditions: auxiliary factor: 500 nM Ephydatia muelleri Gtsf1
Method in brief: as §1

Sequence	pre-steady-state target cleavage rate [1]	pre-steady-state target cleavage rate [2]
GGAGACCUAUGAAUAGAACCUACUACCUCA	0.000298 ± 0.0085	
GGAGACGAUACUAUACAACCUCACUACCUCA	0.00311 ± 0.0036	
CCUCUGGAUACUAUUCAACCUACUAGCUCA	1.37 ± 0.12	
GGAGACCUAUGUUUACAACCUACUAGCUCA	0.00217 ± 0.0037	
GGACUGGAUACUAUACAACACUACUACCUCA	0.000375 ± 0.019	
GGUCUGGAUACUAUACAACCUAGUACCACA	0.0022 ± 0.0028	
GGUCAUGGAUACUAUACAACCUACUACCUCA	1.85 ± 0.11	
GCUCUGAAUACUAUACAACCUACUACCUCA	1.89 ± 0.12	
CCUCUGGAUACUAUACAACCUAUUACCUCA	2.07 ± 0.13	
CCUCUGGUUACUAUUCAACCUACUACCUCA	2.15 ± 0.14	
GGAGACCUAACUAUACAGACCUACUACCUCA	0.000107 ± 0.045	
GGAGACCUAUGAUUCAACCUACUACCUCA	0.00103 ± 0.0046	
GCUCUGGAUAGUAUACUACCUACUACCUCA	0.858 ± 0.049	
UCUCUGGAUACUAUACAACCUACUACCUCA	2.04 ± 0.1	
GGUCUGGAUACUAUACAACCAUACUACCUCA	0.00223 ± 0.0038	
CCUCUGGAUACCUAUACAACCUACUACCUCA	1.18 ± 0.072	
GGUCUGGAUACUAUACAACCGUACUACCUCA	0.00082 ± 0.0079	
GCUCGGGAUACUAUACAACCUACUACCUCA	1.5 ± 0.071	
GGAGACCUAUGAAUACAACCUACUACUUCA	0.00295 ± 0.003	
GCUCUGGAUACUAUACUAACCUACUACCUCA	0.00667 ± 0.0041	

Shown with bars between the fields: entries from further up
Sequence | pre-steady-state target cleavage rate [1] | pre-steady-state target cleavage rate [2]
GGAGACCUAUGAAUAGAACCUACUACCUCA | 0.000298 ± 0.0085 | 
GGAGACGAUACUAUACAACCUCACUACCUCA | 0.00311 ± 0.0036 | 
CCUCUGGAUACUAUUCAACCUACUAGCUCA | 1.37 ± 0.12 | 
GGAGACCUAUGUUUACAACCUACUAGCUCA | 0.00217 ± 0.0037 | 
GGACUGGAUACUAUACAACACUACUACCUCA | 0.000375 ± 0.019 | 
GGUCUGGAUACUAUACAACCUAGUACCACA | 0.0022 ± 0.0028 | 
GGUCAUGGAUACUAUACAACCUACUACCUCA | 1.85 ± 0.11 | 
GCUCUGAAUACUAUACAACCUACUACCUCA | 1.89 ± 0.12 | 
CCUCUGGAUACUAUACAACCUAUUACCUCA | 2.07 ± 0.13 | 
CCUCUGGUUACUAUUCAACCUACUACCUCA | 2.15 ± 0.14 | 
GGAGACCUAACUAUACAGACCUACUACCUCA | 0.000107 ± 0.045 | 
GGAGACCUAUGAUUCAACCUACUACCUCA | 0.00103 ± 0.0046 | 
GCUCUGGAUAGUAUACUACCUACUACCUCA | 0.858 ± 0.049 | 
UCUCUGGAUACUAUACAACCUACUACCUCA | 2.04 ± 0.1 | 

The results go on.

Sequence	pre-steady-state target cleavage rate [1]	pre-steady-state target cleavage rate [2]
GCUCUGGAAACUAUACAACCUACUACCACA	1.42 ± 0.15	
GGUCUGAUACUAUACAACCUACUACCUCA	1.79 ± 0.1	
GGAGACCUAUGAACACAACCUACUACCUCA	0.00134 ± 0.0057	
GGACUGGAUACUAUACAUACCUACUACCUCA	0.000115 ± 0.049	
GGACUGGAUACUAUACAACCUCUACCUCA	0.000972 ± 0.0079	
GCUCGUGGAUACUAUACAACCUACUACCUCA	1.85 ± 0.095	
GGAGACCUAUGUAUACAACCUACUUCCACA	0.000724 ± 0.0041	
GGUCAGGAUUCUAUACAACCUACUACCUCA	1.77 ± 0.12	
GGAGACCUAUGAUAUCAACCUACCUACCUCA	0.000909 ± 0.0049	
GGUCUGCAUACUAUACAACCUACUACCUGA	0.677 ± 0.13	
GGAGACCUAACUAUACAACCGUACUACCUCA	0.00078 ± 0.011	
GGAGUGAUACUAUACAACCUACUACCUCA	1.77 ± 0.11	0.186 ± 0.069
GGAGAGGAUACUAUACAACCUAUACCUCA	0.00143 ± 0.004	0.00469 ± 0.0024
GGAGACCUAUGAUAUGUUGGUACUACCUCA [g2:g10:cont:t1A]	0.000232 ± 0.019	0.00103 ± 0.0056
GGAGACCUAUGUUUACAACCUACUACCUGA	0.00171 ± 0.0046	0.000676 ± 0.0052
GGAGACCUAUGAAUACAACCUACAUACCUCA	0.00106 ± 0.0052	< 0.0001
GGAGACCUAUCAAUACUACCUACUACCUCA	0.00203 ± 0.0035	0.000413 ± 0.0074
GGAGACCUAUGAUAUGUUGCUACUACGCUCA	0.000845 ± 0.0075	0.000911 ± 0.0056
GGAGACCAUACUAUACAACCUACACCUCA	0.00114 ± 0.0052	0.00776 ± 0.0044
GGAGACCUAUGAUUACAUCCUACUACCUGA	0.00112 ± 0.0048	0.00115 ± 0.0057

Sequence	pre-steady-state target cleavage rate [1]	pre-steady-state target cleavage rate [2]
GGAGACGAUACUAUACAACCUAGAUCCUCA	0.113 ± 0.015	0.00272 ± 0.0017
GGAGAGAGAUACUAUACAACCUACUACCUCA	2.02 ± 0.12	0.159 ± 0.057
GGAGACCUAUGAUUACAACCUACCACCUCA	0.00192 ± 0.0044	0.00132 ± 0.008
GGAGACCUAUGAUUUCAACCUACAACCUCA	0.000174 ± 0.013	0.00014 ± 0.02
GGAGACGAUACUAUACAACCUACUACCGUCA	0.443 ± 0.065	0.00873 ± 0.0037
GGAGACCUAUGAUUACAAGCUACUUCCUCA	0.000856 ± 0.0077	
GGAGACCUAUGAUUACAACCUAUUACCUCA	0.000328 ± 0.006	0.00188 ± 0.0045
GGAGACCUAUGAUAUGUUCCAUCUACCUCA	0.000508 ± 0.0086	0.000238 ± 0.009
GGAGACCUAUGAUAUGUUGCUACUAUCCUCA	0.000725 ± 0.01	0.000195 ± 0.015
GGAGACCUAUGAUAUCAACCUAUCUACCUCA	0.000356 ± 0.0071	0.000184 ± 0.014
GGAGACCUAUGAUAACAACUUACUACCUCA	0.00104 ± 0.0048	0.000285 ± 0.007
GGAGACCUAUCUAUACUUGCUACUACCUCA	0.000943 ± 0.0057	0.000441 ± 0.0071
GGAGACCUAUGAUUACAAGCUACAACCUCA	0.000869 ± 0.0064	0.00111 ± 0.0072
GGAGACCUAUGAUAUGUUGCUACUACCGUCA	0.000695 ± 0.0069	0.000712 ± 0.007
GGAGACCUAUGAUUACAACCUACUACUUCA	0.00236 ± 0.0027	0.00206 ± 0.0058
GGAGACCUAUGUAUAGUUCCUACUACCUCA	0.000968 ± 0.0059	0.00209 ± 0.0042
GGAGACCUAUGAAUACAACGUACUACCUGA	0.000359 ± 0.0053	0.0012 ± 0.0068
GGAGACCUAUGAAUACAUCCUACAACCUCA	0.00023 ± 0.0074	0.000727 ± 0.0077
GGAGACCAUACUAAACAACCUACUACCUGA	0.604 ± 0.08	0.00245 ± 0.0027
GGAGACCUAUGAUUACAACGUACUACCACA	0.000297 ± 0.0084	0.000559 ± 0.01

Reference: the supplement of paper PMC10338343
